Record: PubChem BioAssay AID1159590 (NIAID, 2016)

- Aim: 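Finding genes that mouse macrophage TLR2 agonist signalling relies on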
- Cells: mouse RAW264.7 macrophage reporter cells expressing GFP-p65 and a Tnf promoter-mCherry
- Reagents: single siRNA against mouse genes
- Timing: 48 to 72 hours after siRNA transfection, then 40 minutes of ligand
- Conditions: Pam3CSK4 (TLR2/1 agonist) for 40 minutes before fixation; dose not given
- Measured: 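p65 nuclear translocation measured by high-content imaging, shown for each siRNA as a robust z-score averaged across replicates, relative to negative controls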
- Direction: p65 nuclear entry z-score: higher = more p65 moved into nuclei than in negative-control wells
- Hit rule: In these data the active calls have p65 nuclear entry z-score, replicate mean at about -1.5 or lower, or at about 1.5 or higher
- Calls: active = strong change, up or down; inactive = little change
This is a random part of 756 deposited reagents. 128 of all reagents (17%) count as active. 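Calls are two-sided: both reduced and increased p65 nuclear entry count as active.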 Entries without a mark were called inactive. Reagents against one gene are numbered here. Not stated in the record: the amount of reagent.

Against Cxcl9 (C-X-C motif chemokine ligand 9) #1, the entry reads p65 nuclear entry z-score, replicate mean -1.09.
Cxcl9 (C-X-C motif chemokine ligand 9) #2 gave p65 nuclear entry z-score, replicate mean -0.623.
Knock-down of Cxcl9 (C-X-C motif chemokine ligand 9) #3 resulted in: p65 nuclear entry z-score, replicate mean -0.354.
Depletion of Cxcl9 (C-X-C motif chemokine ligand 9) #4 resulted in: p65 nuclear entry z-score, replicate mean 0.0113.
Cxcl9 (C-X-C motif chemokine ligand 9) #5 gave p65 nuclear entry z-score, replicate mean -0.617.
Knock-down of Cxcl9 (C-X-C motif chemokine ligand 9) #6 gave: p65 nuclear entry z-score, replicate mean -1.41.
Mapkapk2 (MAP kinase-activated protein kinase 2) #1 showed p65 nuclear entry z-score, replicate mean -1.77 (active).
Mapkapk2 (MAP kinase-activated protein kinase 2) #2 scored p65 nuclear entry z-score, replicate mean 0.488.
Knock-down of Mapkapk2 (MAP kinase-activated protein kinase 2) #3 resulted in: p65 nuclear entry z-score, replicate mean 1.13.
Mapkapk2 (MAP kinase-activated protein kinase 2) #4 scored p65 nuclear entry z-score, replicate mean -1.34.
For Mapkapk2 (MAP kinase-activated protein kinase 2) #5 the deposit lists p65 nuclear entry z-score, replicate mean 0.514.
Depletion of Mapkapk2 (MAP kinase-activated protein kinase 2) #6 resulted in: p65 nuclear entry z-score, replicate mean -1.15.
Against Ccl3 (C-C motif chemokine ligand 3) #1 the deposit lists p65 nuclear entry z-score, replicate mean -1.94 (active).
After knock-down of Ccl3 (C-C motif chemokine ligand 3) #2 the results were p65 nuclear entry z-score, replicate mean 0.0867.
For Ccl3 (C-C motif chemokine ligand 3) #3, the values are p65 nuclear entry z-score, replicate mean -0.481.
For Ccl3 (C-C motif chemokine ligand 3) #4, the values are p65 nuclear entry z-score, replicate mean 0.163.
Ccl3 (C-C motif chemokine ligand 3) #5 scored p65 nuclear entry z-score, replicate mean -0.591.
With knock-down of Ccl3 (C-C motif chemokine ligand 3) #6, the record shows p65 nuclear entry z-score, replicate mean 5.37 (active).
For Tlr6 (toll-like receptor 6) #1 the deposit lists p65 nuclear entry z-score, replicate mean -2.58 (active).
Tlr6 (toll-like receptor 6) #2 showed p65 nuclear entry z-score, replicate mean -1.5.
For Tlr6 (toll-like receptor 6) #3, the values are p65 nuclear entry z-score, replicate mean -3.05 (active).
With knock-down of Tlr6 (toll-like receptor 6) #4 the results were p65 nuclear entry z-score, replicate mean 1.12.
Tlr6 (toll-like receptor 6) #5 showed p65 nuclear entry z-score, replicate mean -1.22.
For Tlr6 (toll-like receptor 6) #6, the values are p65 nuclear entry z-score, replicate mean -1.45.

Hits, of those listed so far:
Mapkapk2 (MAP kinase-activated protein kinase 2) #1 | p65 nuclear entry z-score, replicate mean: -1.77 (active)
Ccl3 (C-C motif chemokine ligand 3) #1 | p65 nuclear entry z-score, replicate mean: -1.94 (active)
Ccl3 (C-C motif chemokine ligand 3) #6 | p65 nuclear entry z-score, replicate mean: 5.37 (active)
Tlr6 (toll-like receptor 6) #1 | p65 nuclear entry z-score, replicate mean: -2.58 (active)
Tlr6 (toll-like receptor 6) #3 | p65 nuclear entry z-score, replicate mean: -3.05 (active)
